Protein sequences, listed by entry. Tags and fused reporters are not part of them. Lines headed by an entry give the natural chain unless they say otherwise; changes in a name come on top.
UniProt Q9UNA4: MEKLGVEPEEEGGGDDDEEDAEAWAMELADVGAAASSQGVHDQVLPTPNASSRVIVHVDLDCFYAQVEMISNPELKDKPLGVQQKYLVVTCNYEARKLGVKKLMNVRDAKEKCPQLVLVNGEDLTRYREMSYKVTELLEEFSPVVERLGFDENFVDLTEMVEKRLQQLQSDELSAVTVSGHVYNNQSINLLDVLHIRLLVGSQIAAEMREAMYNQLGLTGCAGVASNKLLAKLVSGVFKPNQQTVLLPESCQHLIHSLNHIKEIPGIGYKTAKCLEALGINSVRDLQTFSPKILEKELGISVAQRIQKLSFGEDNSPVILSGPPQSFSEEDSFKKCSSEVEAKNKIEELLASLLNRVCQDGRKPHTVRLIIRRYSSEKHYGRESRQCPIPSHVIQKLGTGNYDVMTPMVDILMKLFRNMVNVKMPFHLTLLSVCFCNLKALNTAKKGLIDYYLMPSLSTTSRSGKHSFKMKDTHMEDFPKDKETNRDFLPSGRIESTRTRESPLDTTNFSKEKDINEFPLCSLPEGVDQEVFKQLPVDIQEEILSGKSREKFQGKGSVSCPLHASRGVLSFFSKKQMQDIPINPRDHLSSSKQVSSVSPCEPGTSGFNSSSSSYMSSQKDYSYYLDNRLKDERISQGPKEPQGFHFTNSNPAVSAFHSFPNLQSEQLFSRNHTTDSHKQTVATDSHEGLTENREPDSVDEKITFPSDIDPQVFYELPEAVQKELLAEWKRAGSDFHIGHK

The campaign covered roughly 390,000 compounds. About 4,000 (1%) were called active. Inconclusive means that the source gave no clear call. Such entries were picked first, then a sample of the others. Calls come from the whole dose curve; as a rule, active = well fitted inhibition curve with a large enough effect; inconclusive = small, poorly fitted or top-dose-only effect, or another doubt; inactive = no such curve, though single readings can be large or run the other way. Potencies beside an inconclusive call are fits to weak or partial responses and may not hold up.
These compounds were tested against DNA polymerase iota (Homo sapiens) (UniProt Q9UNA4) (assay: qHTS for Inhibitors of Polymerase Iota). Details: Pol iota fluorescent replication assay, 10 min; series mostly up to 115 µM.
In short: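 Fluorescent replication assay read twice, at 0 min and 10 min after adding 50 nM (final) substrate. Enzyme (10 nM) and compounds were first incubated 15 min at room temperature; enzyme-free buffer wells were negative controls.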
`Cc1nnc(SCC(=O)NCc2ccco2)[nH]c1=O` was tested, and the Potency was inconclusive: 20 µM [inhibitor, full curve, poor fit].
With `O=C(CCn1c(=O)c2sccc2n(CC(=O)OCc2ccccc2)c1=O)NCc1ccco1` the Potency was inconclusive: 8.91 µM [inhibitor, partial curve, poor fit].
For `O=C(Nc1nc(-c2ccccn2)cs1)C1CC1`, the Potency was inconclusive: 20 µM [inhibitor, partial curve, poor fit].
In the case of `Clc1ccc(C2=CSC3=Nc4cccc5cccc(c45)N23)cc1`, the Potency is reported as inconclusive: 11.2 µM [inhibitor, partial curve, poor fit].
In the case of `N#CC(C#N)=C1C=C2C=C(N3CCCCCC3)CCC2CC1` (configuration not stated), the Potency is reported as active: 44.7 µM.
`NS(=O)(=O)c1ccc(NC(=O)COC(=O)COc2ccc(Cl)cc2)cc1` was tested, and the Potency was “inactive”.
For `COc1ccc(-n2c(C)nc3c(cnn3-c3ccccc3)c2=O)cc1`, the Potency was inconclusive: 31.6 µM [inhibitor, partial curve, poor fit].
`COc1ccc(N2CCN(CCCNC(=O)c3nnc(Cc4ccc(F)cc4)o3)CC2)cc1` was tested, and the Potency was “inactive”.
With `CCOC(=O)c1oc2ccc(S(=O)(=O)n3nc(-c4ccc(OC)cc4)cc3N)cc2c1C` the Potency was inconclusive: 39.8 µM [inhibitor, single point].
In the case of `CCOC(=O)Cn1c(=O)n(-c2cccc(Cl)c2)c2nc(-c3ccccc3Cl)nc(C(N)=O)c21`, the Potency is reported as “inactive”.
`CC(C)C(c1nnnn1Cc1ccccc1)N(Cc1ccco1)Cc1cccs1` (configuration not stated) was tested, and the Potency was inconclusive: 11.2 µM [inhibitor, partial curve, poor fit].
With `O=C(CNC(=O)c1ccc(F)cc1)N/N=C/c1cc(Br)ccc1OC(=O)/C=C/c1ccco1` the Potency was inconclusive: 14.1 µM [inhibitor, full curve, poor fit].
For `CC[n+]1c(/C=C/N(C)c2ccccc2)oc2ccc(F)cc21`, the Potency was inconclusive: 10 µM [inhibitor, partial curve, poor fit].
With `Cc1nc(NCc2ccco2)c(C#N)c2c1COC(C)(C)C2` the Potency was inconclusive: 15.8 µM [inhibitor, partial curve, poor fit].
`CCCNC(=O)C1CCC(Cn2c(=O)c3sccc3n(CC(=O)NCc3ccccc3)c2=O)CC1` (configuration not stated) was tested, and the Potency was inconclusive: 89.1 µM [inhibitor, partial curve, poor fit].
With `Cc1sc2nc(SCC(=O)N3CC(C)OC(C)C3)n(C)c(=O)c2c1C` (configuration not stated) the Potency was inconclusive: 22.4 µM [inhibitor, full curve, poor fit].
In the case of `O=C1CC(=C2c3ccccc3-c3ccccc32)C(=O)N1CCN1CCN(c2ccccc2)CC1`, the Potency is reported as inconclusive: 31.6 µM [inhibitor, single point].
In the case of `Oc1oc(-c2ccccc2Br)nc1C=Nc1ccc(Br)cn1`, the Potency is reported as inconclusive: 14.1 µM [inhibitor, single point].
In the case of `CCOC(=O)c1ccc(NC(=O)COc2ccc(-n3cnnn3)cc2)cc1`, the Potency is reported as inconclusive: 22.4 µM [inhibitor, full curve, poor fit].
For `Cc1cc(C)nc(N2CCC(C(=O)NC3CCCc4ccccc43)CC2)n1` (configuration not stated), the Potency was inconclusive: 79.4 µM [inhibitor, partial curve].
For `CC(C)(C)NC(=S)N/N=C/c1cc(Br)c(O)c(Br)c1`, the Potency was inconclusive: 10 µM [inhibitor, partial curve, poor fit].
With `O=C(C(Br)=Cc1ccccc1)c1ccccc1` the Potency was inconclusive: 15.8 µM [inhibitor, full curve, poor fit].
With `Cc1cccc2nc(Cn3c(=O)n(-c4ccc(Cl)cc4)c(=O)c4c5c(sc43)CCC5)cc(=O)n12` the Potency was “inactive”.
In the case of `CC(NC(=O)COC(=O)c1cn(-c2ccccc2)nc1-c1cccs1)c1ccccc1` (configuration not stated), the Potency is reported as inconclusive: 39.8 µM [inhibitor, partial curve].
In the case of `O=C1c2ccc([N+](=O)[O-])cc2C(=O)N1c1ccc(Cl)cn1`, the Potency is reported as inconclusive: 79.4 µM [inhibitor, single point].
For `O=C(O)c1cc(-c2ccc(/C=C3\NC(=O)N(c4ccccc4)C3=O)o2)ccc1Cl`, the Potency was inconclusive: 63.1 µM [inhibitor, partial curve, poor fit].
In the case of `Cc1noc(C)c1CSc1nnc2scc(-c3ccc(Cl)cc3)n12`, the Potency is reported as inconclusive: 112 µM [inhibitor, single point].
For `O=C(NCC(c1cccnc1)N1CCN(c2ccccc2F)CC1)c1ccc(F)cc1` (configuration not stated), the Potency was inconclusive: 89.1 µM [inhibitor, single point].
For `COc1ccc(C(C(=O)NC2CCCCC2)N(C(=O)c2sc(C)nc2C)c2ccccc2C)cc1` (configuration not stated), the Potency was inconclusive: 70.8 µM [inhibitor, full curve, poor fit].
`COc1ccc2[nH]c(C(=O)O)c(CCN3C(=O)c4ccc(C(=O)O)cc4C3=O)c2c1` was tested, and the Potency was “inactive”.
In the case of `O=C(O)c1ccc(NC(=O)c2cccc(C(=O)Nc3ccc(C(=O)O)cc3)c2)cc1`, the Potency is reported as inconclusive: 10 µM [inhibitor, full curve, poor fit].
With `COC(=O)Cc1csc(NC(=O)c2ccc3ncsc3c2)n1` the Potency was inconclusive: 44.7 µM [inhibitor, partial curve].
With `CC1=Nc2ccccc2/C1=C\c1nc(-c2ccc(F)cc2)oc1O` the Potency was inconclusive: 79.4 µM [inhibitor, partial curve, poor fit].
In the case of `CC1(OCON)CCCc2ccccc21` (configuration not stated), the Potency is reported as inconclusive: 31.6 µM [inhibitor, full curve, poor fit].
In the case of `Cc1ccccc1C(=O)Nc1ccc(S(=O)(=O)N2CCC(c3nc4ccccc4s3)CC2)cc1`, the Potency is reported as “inactive”.
In the case of `CCOc1ccc(C2C(C(=O)Nc3ccccc3)=C(C)N=c3s/c(=C/c4cccc(OCC(=O)O)c4)c(=O)n32)cc1` (configuration not stated), the Potency is reported as inconclusive: 14.1 µM [inhibitor, partial curve, poor fit].
For `CC(C)C[C@@H](CN)NC(=O)c1nc[nH]c1C(=O)N[C@@H](CC(C)C)C(=O)CNC[C@H](C)NC(=O)c1nc[nH]c1C(=O)N[C@@H](CC(=O)O)C(=O)O`, the Potency was inconclusive: 22.4 µM [inhibitor, partial curve, poor fit].
With `COC(=O)CCC(=O)OC1(C)C(=O)C2=CN(Cc3ccccc3)C(c3ccc(OC)cc3)=CC2=C(Br)C1=O` (configuration not stated) the Potency was inconclusive: 35.5 µM [inhibitor, single point].
`COc1ccc(C)cc1NC(=O)C(=O)NCCc1sc(-c2cccc(C)c2)nc1C` was tested, and the Potency was “inactive”.
In the case of `CCC(=O)Nc1ccc(C(=O)CSc2nnc(-c3ccccc3F)n2C2CC2)cc1`, the Potency is reported as inconclusive: 20 µM [inhibitor, partial curve, poor fit].
`Cc1cccc(NC(=O)Cn2cc(S(=O)(=O)N3CCCC3)c(S(=O)(=O)N3CCCC3)c2)c1C` was tested, and the Potency was “inactive”.
For `COc1cccc(NC(=O)CSc2nc(C)c(Cc3ccccc3)c(=O)[nH]2)c1`, the Potency was “inactive”.
For `COc1ccccc1Nc1ncnc2c1oc1ccccc12`, the Potency was inconclusive: 70.8 µM [inhibitor, partial curve, poor fit].
`O=c1cc(CN2CCc3ccccc3C2)nc2sccn12` was tested, and the Potency was inconclusive: 15.8 µM [inhibitor, partial curve, poor fit].
With `COCCCn1c(SCC(=O)OC2CCCCC2)nnc1-c1ccco1` the Potency was “inactive”.
With `Cc1cc(C)c2[nH]c(=O)c(CN(CC3CCCO3)C(=O)C3CCCO3)cc2c1` (configuration not stated) the Potency was inconclusive: 112 µM [inhibitor, partial curve, poor fit].
For `Cc1ccc(C)n1-c1ccc(N2CCOCC2)nc1`, the Potency was inconclusive: 31.6 µM [inhibitor, single point].
In the case of `COc1ccc(C(CNC(=O)COc2ccccc2OC)N2CCCCC2)cc1` (configuration not stated), the Potency is reported as inconclusive: 79.4 µM [inhibitor, partial curve, poor fit].
With `CC(Oc1ccc2c3c(c(=O)oc2c1)CCC3)C(=O)N[C@@H](Cc1ccccc1)C(=O)O` (some centres not stated) the Potency was inconclusive: 100 µM [inhibitor, single point].
In the case of `c1csc(-c2nc3nc4ccccc4nc3n2Cc2ccc3c(c2)OCO3)c1`, the Potency is reported as inconclusive: 10 µM [inhibitor, single point].
With `O=C(CCc1nc2sc3c(c2c(=O)[nH]1)CCCC3)NCCOc1ccccc1` the Potency was inconclusive: 22.4 µM [inhibitor, full curve].
With `CCC(CC)C(=O)N1c2ccccc2C(C)(c2ccccc2)CC1(C)C` (configuration not stated) the Potency was inconclusive: 89.1 µM [inhibitor, single point].
For `COC(=O)c1ccc(-c2ccc(/C=N/NC(=O)Cc3nnc(N)s3)o2)cc1`, the Potency was inconclusive: 20 µM [inhibitor, single point].
In the case of `O=c1c2ccccc2nc(/C=C/c2cccc([N+](=O)[O-])c2)n1CCCO`, the Potency is reported as inconclusive: 0.355 µM [inhibitor, full curve, poor fit].
`CCCc1ccc(OCc2nc(-c3ccc(NC(=O)c4ccco4)cc3)no2)cc1` was tested, and the Potency was inconclusive: 15.8 µM [inhibitor, single point].
`CCc1ccc2oc(-c3ccc(C)c(NC(=O)c4cc([N+](=O)[O-])ccc4N4CCOCC4)c3)nc2c1` was tested, and the Potency was “inactive”.
For `O=S(=O)(c1ccc2c(c1)OCCO2)N1CCN(c2nc(-c3cccs3)nc3ccccc23)CC1`, the Potency was “inactive”.
In the case of `CCCCCN1N=C(C)CC1=O`, the Potency is reported as active: 1.12 µM.
In the case of `COc1ccc(OC)c(CCNC(=O)c2c(C)oc3ncn(CC(C)C)c(=O)c23)c1`, the Potency is reported as “inactive”.
In the case of `N#CCCn1cc(C(=O)CN2C(=O)C(=O)N(C3CCCC3)C2=O)c2ccccc21`, the Potency is reported as “inactive”.
In the case of `Cc1ccc(-n2[nH]c(C)c(/C=N/c3cccc(C)n3)c2=O)cc1`, the Potency is reported as inconclusive: 14.1 µM [inhibitor, partial curve, poor fit].
With `COc1cc(C(C(=O)NC2CCCCC2)N(C(=O)c2cnccn2)c2ccccc2)cc(OC)c1OC` (configuration not stated) the Potency was “inactive”.
Potency is the fitted concentration of half-maximal effect.
